According to PubChem BioAssay AID1671190 (National Center for Advancing Translational Sciences (NCATS), 2021):
About 6,100 (1.1%) of roughly 580,000 compounds were called active. Inconclusive results, whose numbers are uncertain, are shown with a selection of clear calls. Calls come from the whole dose curve; as a rule, active = well fitted inhibition curve with a large enough effect; inconclusive = small, poorly fitted or top-dose-only effect, or another doubt; inactive = no such curve, though single readings can be large or run the other way. Where the call is inconclusive, the potency comes from a doubtful curve fit.

By UniProt entry, the sequences of proteins in these tests, tags left out. Where a name states a change or a piece, a line headed by the entry shows the natural chain unless it says otherwise.
UniProt P18054: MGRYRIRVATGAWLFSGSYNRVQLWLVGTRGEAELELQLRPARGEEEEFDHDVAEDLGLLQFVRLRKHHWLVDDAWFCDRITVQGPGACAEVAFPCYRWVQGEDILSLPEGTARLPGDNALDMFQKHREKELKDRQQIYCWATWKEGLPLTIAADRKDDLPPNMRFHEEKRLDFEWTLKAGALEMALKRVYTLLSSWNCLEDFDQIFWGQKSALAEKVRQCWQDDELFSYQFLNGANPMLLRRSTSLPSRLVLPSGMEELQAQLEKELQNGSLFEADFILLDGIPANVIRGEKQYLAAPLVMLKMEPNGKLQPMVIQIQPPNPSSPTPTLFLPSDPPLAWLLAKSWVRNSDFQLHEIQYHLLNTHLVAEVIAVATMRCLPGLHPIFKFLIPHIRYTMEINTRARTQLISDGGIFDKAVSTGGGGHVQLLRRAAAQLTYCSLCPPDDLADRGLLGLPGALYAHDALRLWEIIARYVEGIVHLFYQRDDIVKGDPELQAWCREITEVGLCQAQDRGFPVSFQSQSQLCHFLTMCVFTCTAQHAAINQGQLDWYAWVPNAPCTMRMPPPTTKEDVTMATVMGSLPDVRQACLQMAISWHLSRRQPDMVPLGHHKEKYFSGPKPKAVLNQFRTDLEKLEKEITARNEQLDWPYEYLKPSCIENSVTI

What follows are compounds tested against Polyunsaturated fatty acid lipoxygenase ALOX12 (Homo sapiens) (UniProt P18054) (assay: Primary qHTS assay for inhibitors of human arachidonate 12S-lipoxygenase (ALOX12): Round 2). Conditions: purified 12hLO, xylenol orange hydroperoxide absorbance; activity change, negative = inhibition: at 108 µM (top of the series) unless noted.
Procedure, shortened: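 Purified human 12hLO at 150 nM in 25 mM Hepes, 0.01% Triton X-100, pH 7.0, preincubated 15 min at room temperature with compound. Reaction started with 40 uM arachidonic acid, 30 min at room temperature. Hydroperoxide measured by Fe-xylenol orange, 573/405 nm absorbance ratio.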
% is set by controls: 0 for no effect and ±100 for the full control effect; potency is the fitted concentration of half-maximal effect.

Row | SMILES | Potency | activity change, negative = inhibition
1 | C#CCOCCOCCOCCNc1nc(N2CCN(C(=O)[C@H]([C@@H](C)O)n3cc(CCCCN)nn3)CC2)nc(N2CCN(C(=O)[C@H]([C@@H](C)CC)n3cc(CCCN=C(N)N)nn3)CC2)n1 | inconclusive: 35.5 µM [inhibitor, partial curve] | –
2 | O=C(NN1C(=O)CSC1=S)c1cccnc1 | – | inactive: 0%
3 | CN1CC(=O)N(C2CCCNCC2)Cc2c1ncnc2N1CCN(c2ccccn2)CC1 (stereo not drawn) | inconclusive: 3.98 µM [inhibitor, full curve, poor fit] | –
4 | Cc1cc(C)c2c(N)c(C(=O)NN3CC(=O)N(c4ccccc4)CC3=O)sc2n1 | active: 50.1 µM | –
5 | O=C(Cn1cccc1-c1nc(-c2ccc3c(c2)OCO3)no1)Nc1cc(F)cc(F)c1 | – | inactive: 1.71%
6 | Cc1noc(C)c1NC(=O)N(C)C[C@H]1Oc2ccc(NS(=O)(=O)c3cn(C)cn3)cc2C(=O)N([C@H](C)CO)C[C@@H]1C | inconclusive: 79.4 µM [inhibitor, single point] | –
7 | Cc1ccc(S(=O)(=O)Nc2cc(Cl)ccc2C(=O)Nc2nc(-c3ccccc3)cs2)cc1 | inconclusive: 3.85 µM [inhibitor, full curve, poor fit] | –
8 | CCc1cc(C(=O)Nc2ccc(S(=O)(=O)NC3=NCCCCC3)cc2)sc1C | inconclusive: 4.47 µM [inhibitor, full curve, poor fit] | –
9 | COc1ccc(C(CN)c2c[nH]c3ccccc23)cc1 (stereo not drawn) | – | inactive: 3.83%
10 | Cc1oc2ccc(O)c(CN3CCCCCC3)c2c1C(=O)Nc1cccc(Cl)c1C | inconclusive: 63.1 µM [inhibitor, partial curve, poor fit] | –
11 | Cn1cccc1Cc1nnc(SCC(=O)NCC2CCCO2)n1CCc1ccccc1 (stereo not drawn) | inconclusive: 39.8 µM [inhibitor, partial curve, poor fit] | –
12 | Cc1ccc(C(=O)NCCC(=O)N2CC[C@@](C)(O)[C@@H](O)C2)cc1 | – | inactive: 14.1%
13 | COc1cc2nc(C)n(CC(=O)NC3CCCc4c3[nH]c3ccccc43)c(=O)c2cc1OC (stereo not drawn) | active: 44.7 µM | –
14 | O=c1[nH]c(/C=C2\C=Nc3ccccc32)c(O)n1Cc1ccccc1F | inconclusive: 50.1 µM [inhibitor, partial curve, poor fit] | –
15 | CCc1ccc(N2C=C(C(=O)OC)C(c3ccccc3F)C(C#N)=C2N)cc1 (stereo not drawn) | active: 44.7 µM | –
16 | Cc1[nH]cnc1CSCCN | inconclusive: 2.51 µM [inhibitor, partial curve, poor fit] | –
17 | C/C(=N/Nc1nc(-c2ccc(Cl)cc2)cs1)c1cccs1 | inconclusive: 44.7 µM [inhibitor, partial curve, poor fit] | –
18 | Oc1ccc(C[C@@H]2CNC(=S)N2CCc2cc(C(F)(F)F)cc(C(F)(F)F)c2)cc1 | inconclusive: 50.1 µM [inhibitor, partial curve, poor fit] | –
19 | CCn1c(SCC(=O)Nc2ccc3c(c2)OCCO3)nc2ccsc2c1=O | inconclusive: 39.8 µM [inhibitor, partial curve] | –
20 | CC(=O)N1CCC2(CC1)CN(C(=O)C1CCN(C)CC1)Cc1ccccc1O2 | – | inactive: 9.54% [at 6.33 µM]
21 | CC(C)(N)C(=O)N1CCCC(N2CCN(c3cccc(C(F)(F)F)c3)CC2)C1 (stereo not drawn) | inconclusive: 3.55 µM [inhibitor, full curve, poor fit] | –

Shown tab-delimited: part of the list above
Row	SMILES	Potency	activity change, negative = inhibition
9	COc1ccc(C(CN)c2c[nH]c3ccccc23)cc1 (stereo not drawn)	–	inactive: 3.83%
10	Cc1oc2ccc(O)c(CN3CCCCCC3)c2c1C(=O)Nc1cccc(Cl)c1C	inconclusive: 63.1 µM [inhibitor, partial curve, poor fit]	–
11	Cn1cccc1Cc1nnc(SCC(=O)NCC2CCCO2)n1CCc1ccccc1 (stereo not drawn)	inconclusive: 39.8 µM [inhibitor, partial curve, poor fit]	–

(list continues)

Row | SMILES | Potency | activity change, negative = inhibition
22 | COC(=O)N1CCC2(CCCN(C(=O)Nc3cccc(F)c3)C2)CC1 | inconclusive: 31.6 µM [inhibitor, single point] | –
23 | NC(=O)c1ccsc1NC(=O)COC(=O)CSc1ccc(Cl)cc1 | inconclusive: 50.1 µM [inhibitor, partial curve, poor fit] | –
24 | C/C=C/c1ccc(OCCNCc2ccccc2)c(OC)c1 | inconclusive: 0.398 µM [inhibitor, full curve, poor fit] | –
25 | Cc1[nH]n(-c2ccccc2)c(=O)c1C(C[N+](=O)[O-])c1ccc(Br)cc1 (stereo not drawn) | inconclusive: 50.1 µM [inhibitor, partial curve, poor fit] | –
26 | CCCc1c(-c2cccc(Br)c2)ncn1Cc1cccc(-c2ccccc2)c1 | active: 3.55 µM | –
27 | CC(C)CC(NC(=O)c1cccc(-n2cnnc2)c1)c1ncnn1C (stereo not drawn) | – | inactive: 3.5%
28 | COc1cc(/C=N/O)ccc1OCc1ccccc1Cl | – | inactive: -11.9%
29 | N#Cc1ccccc1-c1ccc(CN2CCCC2)cc1 | – | inactive: -35.3%
30 | Cc1ccc(CN2CCC(CNC(=O)CCc3nnc4ccc(N5CCCCC5)nn34)C2)cc1 (stereo not drawn) | – | inactive: 10.9%
31 | CCOc1ccccc1NC(=O)Cn1cccc1-c1nc(-c2ccc(F)cc2)no1 | inconclusive: 56.2 µM [inhibitor, partial curve, poor fit] | –
32 | CC(C)CC1C(=O)N(Cc2cn(CCC3OCCCO3)nn2)CCS(=O)(=O)N1Cc1ccc(-c2ccncc2)cc1 (stereo not drawn) | inconclusive: 35.5 µM [inhibitor, single point] | –
33 | Cc1nn2c(=O)cc(COC(=O)c3cccc(NC(=O)COc4ccc(C)c(C)c4)c3)nc2s1 | inconclusive: 112 µM [inhibitor, partial curve, poor fit] | –
34 | CCN(CC)CCCNC(=O)c1ccc2c(c1)N(Cc1c(F)cccc1Cl)C(=O)c1ccccc1S2 | inconclusive: 12.6 µM [inhibitor, partial curve] | –
35 | CCc1nc2ccc(C(=O)NCc3ccc(OC)cc3)cn2c1N(CC)Cc1cccc(Br)c1 | – | inactive: -13.1%
36 | Cc1ccsc1C(=O)NC(C)c1ccc2c(c1)OCO2 (stereo not drawn) | inconclusive: 20 µM [inhibitor, full curve, poor fit] | –
37 | O=C(O)c1ccc(/C=N/NC(=O)c2ccc(CN3c4cccc5cccc(c45)S3(=O)=O)cc2)cc1 | – | inactive: -16.9%
38 | COc1ccccc1-c1nc(COc2ccc(Cl)cc2Cl)no1 | inconclusive: 126 µM [inhibitor, single point] | –
39 | COc1ccc(Cl)cc1NC(=O)COc1ccccc1 | – | inactive: -3%
40 | CC(NCc1cccc(OCc2ccccc2)c1)C(O)c1ccccc1 (stereo not drawn) | inconclusive: 44.7 µM [inhibitor, partial curve, poor fit] | –
41 | COc1ccc(F)cc1S(=O)(=O)N1CCCC(Cn2c(C)nc3cccnc32)C1 (stereo not drawn) | inconclusive: 0.708 µM [inhibitor, full curve] | –
42 | O=C(N/N=C/c1ccccc1C(=O)O)c1ccncc1 | inconclusive: 1.12 µM [inhibitor, full curve] | –

Two entries from above, as tab-separated lines:
Row	SMILES	Potency	activity change, negative = inhibition
28	COc1cc(/C=N/O)ccc1OCc1ccccc1Cl	–	inactive: -11.9%
37	O=C(O)c1ccc(/C=N/NC(=O)c2ccc(CN3c4cccc5cccc(c45)S3(=O)=O)cc2)cc1	–	inactive: -16.9%

Additional entries follow:

Row | SMILES | Potency | activity change, negative = inhibition
43 | Cc1ccc(S(=O)(=O)N(C)c2ccc(C(=O)NCC(c3ccccc3)N3CCCC3)cc2)cc1 (stereo not drawn) | inconclusive: 89.1 µM [inhibitor, partial curve, poor fit] | –
44 | COc1ccc(C2C(C(=O)c3ccc(C)o3)=C(O)C(=O)N2CC2CCCO2)cc1OC (stereo not drawn) | inconclusive: 0.562 µM [inhibitor, full curve, poor fit] | –
45 | CCCCN(C)C(=O)C1CCN(Cc2ccc(OCc3ccccc3)cc2)CC1 | inconclusive: 2.51 µM [inhibitor, full curve, poor fit] | –
46 | COc1cc(/C=N/NC(=S)NC2CC3CC2C2C=CCC32)ccc1O (stereo not drawn) | inconclusive: 39.8 µM [inhibitor, partial curve, poor fit] | –
47 | CSc1ccccc1C(=O)Nc1cc2c(cc1C(=O)O)OCCCO2 | inconclusive: 44.7 µM [inhibitor, partial curve] | –
48 | CN1C[C@H](O)C[C@H]1c1nnc2n1CCN(C(=O)C1CCCC1)CC2 | inconclusive: 3.55 µM [inhibitor, full curve, poor fit] | –
49 | O=c1[nH]c(=O)n(Cc2ccccc2)c2nc(-c3ccc(Oc4ccc(F)cc4)c([N+](=O)[O-])c3)n(CCO)c12 | – | inactive: -12.3%
50 | COC(=O)c1cccc(OC(=O)/C=C/c2ccc(-c3ccccc3)s2)c1 | – | inactive: 12.7%
51 | COc1ccccc1NC(=O)c1sc(Cl)nc1C | inconclusive: 0.355 µM [inhibitor, full curve, poor fit] | –
52 | COc1ccc(NC(=O)c2cc3c(=O)n(C)c4ccccc4c3s2)cc1Cl | inconclusive: 224 µM [inhibitor, partial curve, poor fit] | –
53 | O=C(C[C@@H]1C/C=C\CCC(=O)OC[C@H](Cc2ccccc2)NC1=O)N[C@@H](CO)Cc1ccccc1 | – | inactive: -7.01%
54 | CCCCN(C)C(=O)CSc1nc2ccsc2c(=O)n1-c1cc(F)cc(F)c1 | inconclusive: 17.8 µM [inhibitor, partial curve] | –
55 | CCCCCc1ccc(C(=O)CCN(C)C)cc1 | inconclusive: 4.47 µM [inhibitor, full curve, poor fit] | –
56 | Clc1ccc(-c2csc3ncnc(Cl)c23)cc1 | – | inactive: -25%
57 | O=C(CSc1c2c(nc3ccc(Cl)cc13)CCCC2)NCc1cccs1 | inconclusive: 39.8 µM [inhibitor, partial curve, poor fit] | –
58 | COc1cccc(/C=C2/CN(C)CC3=C2OC(N)=C(C#N)C3c2cccc(OC)c2)c1 (stereo not drawn) | inconclusive: 25.1 µM [inhibitor, single point] | –
59 | COc1ccc2c(CC(=O)OCC(=O)c3ccccc3)coc2c1 | inconclusive: 56.2 µM [inhibitor, partial curve, poor fit] | –
60 | COc1ccc(CNC(=O)c2ccc(OC(C)=O)cc2)cc1 | – | inactive: 10.1%
61 | COC(=O)C(C)(C)NC(=O)c1ccc2c(c1)NC(=O)CS2 | inconclusive: 3.98 µM [inhibitor, full curve, poor fit] | –
62 | CCOc1ccc(-c2cc3c(=O)n(CC(=O)NCc4ccc(OC)cc4)ccn3n2)cc1 | inconclusive: 100 µM [inhibitor, partial curve, poor fit] | –
63 | CCc1cccc2c(C(=O)CN3CCN(CC(=O)NC4CC4)CC3)c[nH]c12 | inconclusive: 100 µM [inhibitor, partial curve, poor fit] | –
